Data from publication doi:10.1101/2022.09.09.507380.

Amino acid sequences for entries named in this document (tags omitted).
UniProt P62140: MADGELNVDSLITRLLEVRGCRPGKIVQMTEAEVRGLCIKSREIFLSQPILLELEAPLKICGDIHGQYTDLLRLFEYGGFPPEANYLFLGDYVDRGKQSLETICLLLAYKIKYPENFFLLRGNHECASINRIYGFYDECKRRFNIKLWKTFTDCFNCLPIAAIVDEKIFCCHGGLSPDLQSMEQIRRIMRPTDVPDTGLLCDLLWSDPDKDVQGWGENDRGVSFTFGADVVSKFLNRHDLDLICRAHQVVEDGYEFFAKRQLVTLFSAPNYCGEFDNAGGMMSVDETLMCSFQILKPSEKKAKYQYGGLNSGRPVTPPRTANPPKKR
UniProt P62141: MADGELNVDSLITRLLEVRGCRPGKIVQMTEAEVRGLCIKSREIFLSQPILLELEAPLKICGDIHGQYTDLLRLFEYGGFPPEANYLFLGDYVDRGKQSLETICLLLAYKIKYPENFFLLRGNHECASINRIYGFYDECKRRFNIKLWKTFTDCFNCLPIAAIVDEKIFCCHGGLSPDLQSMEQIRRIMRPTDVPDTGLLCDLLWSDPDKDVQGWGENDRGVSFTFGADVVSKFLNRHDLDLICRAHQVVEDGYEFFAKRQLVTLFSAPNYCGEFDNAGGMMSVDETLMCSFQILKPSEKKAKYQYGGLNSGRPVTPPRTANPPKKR
UniProt P36873: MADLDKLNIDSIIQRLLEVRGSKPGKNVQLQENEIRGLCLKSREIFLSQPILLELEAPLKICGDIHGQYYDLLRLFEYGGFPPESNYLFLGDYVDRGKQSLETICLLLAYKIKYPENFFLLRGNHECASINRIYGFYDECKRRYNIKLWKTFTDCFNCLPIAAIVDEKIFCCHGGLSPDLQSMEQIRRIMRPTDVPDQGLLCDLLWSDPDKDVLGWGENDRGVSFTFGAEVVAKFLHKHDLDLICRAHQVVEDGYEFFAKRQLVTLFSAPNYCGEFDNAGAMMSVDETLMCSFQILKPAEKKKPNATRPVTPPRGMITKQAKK
UniProt Q9BZL4: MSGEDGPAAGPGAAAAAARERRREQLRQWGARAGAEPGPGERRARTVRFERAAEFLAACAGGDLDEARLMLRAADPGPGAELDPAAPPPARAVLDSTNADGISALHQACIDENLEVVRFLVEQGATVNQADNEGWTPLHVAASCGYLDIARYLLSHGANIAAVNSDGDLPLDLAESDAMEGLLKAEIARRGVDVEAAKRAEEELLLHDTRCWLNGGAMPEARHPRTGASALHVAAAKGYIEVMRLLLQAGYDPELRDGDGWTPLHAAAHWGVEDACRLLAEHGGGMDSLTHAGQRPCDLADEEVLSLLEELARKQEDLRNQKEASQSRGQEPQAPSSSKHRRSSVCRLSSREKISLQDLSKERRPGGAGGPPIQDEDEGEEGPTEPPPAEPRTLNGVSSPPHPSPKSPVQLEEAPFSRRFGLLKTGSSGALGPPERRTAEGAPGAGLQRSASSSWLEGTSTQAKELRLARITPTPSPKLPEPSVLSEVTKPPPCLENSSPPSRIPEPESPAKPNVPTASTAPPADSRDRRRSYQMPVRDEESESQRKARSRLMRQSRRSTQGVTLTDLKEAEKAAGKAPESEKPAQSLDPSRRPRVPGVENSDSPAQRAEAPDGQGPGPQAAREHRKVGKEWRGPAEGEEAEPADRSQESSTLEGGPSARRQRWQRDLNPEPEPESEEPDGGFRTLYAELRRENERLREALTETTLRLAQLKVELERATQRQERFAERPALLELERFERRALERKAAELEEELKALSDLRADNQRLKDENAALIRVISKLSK
UniProt P46013: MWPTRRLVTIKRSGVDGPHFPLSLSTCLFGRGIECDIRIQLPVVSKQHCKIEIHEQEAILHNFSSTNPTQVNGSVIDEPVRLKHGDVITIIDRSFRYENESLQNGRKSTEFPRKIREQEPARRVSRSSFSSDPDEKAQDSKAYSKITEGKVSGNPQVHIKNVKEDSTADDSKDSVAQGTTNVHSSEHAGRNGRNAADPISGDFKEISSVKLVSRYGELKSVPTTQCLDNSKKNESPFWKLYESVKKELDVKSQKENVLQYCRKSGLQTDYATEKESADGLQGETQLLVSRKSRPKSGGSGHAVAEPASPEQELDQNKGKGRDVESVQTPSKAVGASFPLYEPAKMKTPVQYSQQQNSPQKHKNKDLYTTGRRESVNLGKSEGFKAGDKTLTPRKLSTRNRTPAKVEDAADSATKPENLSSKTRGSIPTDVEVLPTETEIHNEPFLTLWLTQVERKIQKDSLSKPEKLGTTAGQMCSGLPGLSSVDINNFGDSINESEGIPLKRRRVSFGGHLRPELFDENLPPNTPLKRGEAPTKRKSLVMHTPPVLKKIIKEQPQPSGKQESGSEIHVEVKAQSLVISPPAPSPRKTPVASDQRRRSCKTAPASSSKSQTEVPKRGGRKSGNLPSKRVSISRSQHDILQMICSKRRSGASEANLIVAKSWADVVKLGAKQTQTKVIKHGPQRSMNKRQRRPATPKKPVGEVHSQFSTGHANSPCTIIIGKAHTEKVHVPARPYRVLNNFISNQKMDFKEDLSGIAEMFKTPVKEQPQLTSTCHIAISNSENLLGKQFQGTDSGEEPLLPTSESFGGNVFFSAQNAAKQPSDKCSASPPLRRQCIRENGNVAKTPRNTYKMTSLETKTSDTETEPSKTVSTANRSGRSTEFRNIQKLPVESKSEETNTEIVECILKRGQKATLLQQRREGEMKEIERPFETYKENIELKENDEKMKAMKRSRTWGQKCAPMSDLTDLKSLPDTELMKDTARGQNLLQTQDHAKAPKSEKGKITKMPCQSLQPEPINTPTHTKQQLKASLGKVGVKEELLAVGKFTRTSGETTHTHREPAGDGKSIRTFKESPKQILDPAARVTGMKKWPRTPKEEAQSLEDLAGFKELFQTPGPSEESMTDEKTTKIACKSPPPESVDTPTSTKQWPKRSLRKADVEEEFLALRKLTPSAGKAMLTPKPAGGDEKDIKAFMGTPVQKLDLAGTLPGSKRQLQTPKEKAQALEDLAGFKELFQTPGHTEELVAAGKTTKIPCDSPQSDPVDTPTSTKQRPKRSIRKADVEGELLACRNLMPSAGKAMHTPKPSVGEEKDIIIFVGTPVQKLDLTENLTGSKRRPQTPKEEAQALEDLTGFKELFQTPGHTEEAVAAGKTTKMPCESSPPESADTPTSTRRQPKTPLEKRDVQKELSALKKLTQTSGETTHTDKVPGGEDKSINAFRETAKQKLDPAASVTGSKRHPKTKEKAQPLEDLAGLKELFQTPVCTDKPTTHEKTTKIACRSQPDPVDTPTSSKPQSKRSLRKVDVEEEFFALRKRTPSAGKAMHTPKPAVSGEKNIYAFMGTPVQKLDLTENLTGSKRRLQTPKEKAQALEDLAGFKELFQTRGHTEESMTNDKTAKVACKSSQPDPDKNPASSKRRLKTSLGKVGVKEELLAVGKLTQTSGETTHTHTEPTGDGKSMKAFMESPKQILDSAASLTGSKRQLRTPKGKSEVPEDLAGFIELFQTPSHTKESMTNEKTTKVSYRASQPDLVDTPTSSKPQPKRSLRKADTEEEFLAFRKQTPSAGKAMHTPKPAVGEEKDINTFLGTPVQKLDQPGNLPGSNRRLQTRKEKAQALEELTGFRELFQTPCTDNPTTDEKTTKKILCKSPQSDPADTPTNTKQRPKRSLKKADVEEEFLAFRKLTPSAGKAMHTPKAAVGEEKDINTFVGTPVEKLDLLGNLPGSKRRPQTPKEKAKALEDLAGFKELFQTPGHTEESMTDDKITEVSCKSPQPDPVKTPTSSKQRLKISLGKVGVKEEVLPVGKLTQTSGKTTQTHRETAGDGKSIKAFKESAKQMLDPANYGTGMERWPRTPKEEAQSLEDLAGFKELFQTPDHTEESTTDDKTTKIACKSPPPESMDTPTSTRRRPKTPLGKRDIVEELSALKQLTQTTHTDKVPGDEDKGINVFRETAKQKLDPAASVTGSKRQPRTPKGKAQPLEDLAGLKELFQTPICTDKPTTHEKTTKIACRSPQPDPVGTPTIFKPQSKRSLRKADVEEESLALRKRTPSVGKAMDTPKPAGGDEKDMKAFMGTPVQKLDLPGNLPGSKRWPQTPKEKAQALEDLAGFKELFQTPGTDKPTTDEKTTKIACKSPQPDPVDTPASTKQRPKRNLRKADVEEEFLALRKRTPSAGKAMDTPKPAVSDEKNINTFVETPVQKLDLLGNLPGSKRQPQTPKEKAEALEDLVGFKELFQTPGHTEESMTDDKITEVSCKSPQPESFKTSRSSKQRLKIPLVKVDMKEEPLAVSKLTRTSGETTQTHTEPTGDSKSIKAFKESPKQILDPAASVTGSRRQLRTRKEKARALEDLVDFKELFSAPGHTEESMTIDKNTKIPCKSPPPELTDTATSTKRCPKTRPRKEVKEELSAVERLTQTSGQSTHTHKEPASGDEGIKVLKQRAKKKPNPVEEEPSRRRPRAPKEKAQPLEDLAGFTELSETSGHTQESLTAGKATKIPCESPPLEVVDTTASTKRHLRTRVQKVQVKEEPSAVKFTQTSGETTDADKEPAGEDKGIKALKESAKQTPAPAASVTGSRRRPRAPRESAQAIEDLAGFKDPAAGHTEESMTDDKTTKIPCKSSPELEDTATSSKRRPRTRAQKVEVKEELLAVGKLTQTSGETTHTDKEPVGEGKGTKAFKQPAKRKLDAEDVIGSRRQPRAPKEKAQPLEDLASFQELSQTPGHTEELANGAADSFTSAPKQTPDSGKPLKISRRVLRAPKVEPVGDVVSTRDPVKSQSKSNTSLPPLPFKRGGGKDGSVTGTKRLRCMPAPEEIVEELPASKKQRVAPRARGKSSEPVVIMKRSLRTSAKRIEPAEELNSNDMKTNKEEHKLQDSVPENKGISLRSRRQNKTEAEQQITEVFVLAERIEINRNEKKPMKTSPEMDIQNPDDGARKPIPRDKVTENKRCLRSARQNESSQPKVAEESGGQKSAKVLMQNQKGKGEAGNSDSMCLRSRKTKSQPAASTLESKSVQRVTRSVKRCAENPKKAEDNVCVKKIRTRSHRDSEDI
UniProt Q96SB3: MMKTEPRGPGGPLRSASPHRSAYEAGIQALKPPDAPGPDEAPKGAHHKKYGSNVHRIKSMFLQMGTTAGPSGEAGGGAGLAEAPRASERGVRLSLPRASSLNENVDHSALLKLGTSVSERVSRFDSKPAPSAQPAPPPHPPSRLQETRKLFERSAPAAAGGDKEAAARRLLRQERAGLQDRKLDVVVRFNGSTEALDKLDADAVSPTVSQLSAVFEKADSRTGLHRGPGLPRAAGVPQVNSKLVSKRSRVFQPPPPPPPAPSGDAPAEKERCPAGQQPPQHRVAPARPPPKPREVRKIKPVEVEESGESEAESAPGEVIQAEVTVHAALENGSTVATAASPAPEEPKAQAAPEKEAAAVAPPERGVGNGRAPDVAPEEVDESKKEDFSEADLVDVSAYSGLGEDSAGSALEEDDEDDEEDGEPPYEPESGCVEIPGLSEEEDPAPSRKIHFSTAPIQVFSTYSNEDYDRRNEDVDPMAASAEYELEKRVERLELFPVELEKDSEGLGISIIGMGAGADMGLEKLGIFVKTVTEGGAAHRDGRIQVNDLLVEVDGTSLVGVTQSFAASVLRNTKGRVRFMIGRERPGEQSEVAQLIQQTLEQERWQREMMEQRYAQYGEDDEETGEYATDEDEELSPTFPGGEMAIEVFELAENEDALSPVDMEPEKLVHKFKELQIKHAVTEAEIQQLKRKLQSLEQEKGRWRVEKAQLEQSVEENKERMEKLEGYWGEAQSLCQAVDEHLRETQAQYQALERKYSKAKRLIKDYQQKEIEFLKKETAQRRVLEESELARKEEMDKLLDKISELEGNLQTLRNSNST
UniProt Q92624: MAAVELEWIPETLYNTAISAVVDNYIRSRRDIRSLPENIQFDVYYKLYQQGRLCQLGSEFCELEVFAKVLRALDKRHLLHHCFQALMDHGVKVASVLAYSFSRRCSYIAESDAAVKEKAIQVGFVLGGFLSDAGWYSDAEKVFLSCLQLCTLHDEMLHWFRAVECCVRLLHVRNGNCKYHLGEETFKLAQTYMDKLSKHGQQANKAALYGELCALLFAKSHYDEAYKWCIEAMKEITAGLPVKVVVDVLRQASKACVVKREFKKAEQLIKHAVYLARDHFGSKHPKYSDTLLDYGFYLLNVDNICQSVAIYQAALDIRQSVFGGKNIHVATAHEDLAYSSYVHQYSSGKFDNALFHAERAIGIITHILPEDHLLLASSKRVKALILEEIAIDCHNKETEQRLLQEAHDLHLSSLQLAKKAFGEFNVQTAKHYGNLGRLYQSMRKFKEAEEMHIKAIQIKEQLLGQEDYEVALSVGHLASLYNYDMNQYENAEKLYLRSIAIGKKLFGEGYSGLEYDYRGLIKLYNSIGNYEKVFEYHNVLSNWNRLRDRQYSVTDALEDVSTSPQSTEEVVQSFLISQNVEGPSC

Key:
Assay in all cases: affinity purification with mass spectrometry
[1] = target: GFP-tagged c20orf27 (wild type) (UniProt Q9GZN8)
[2] = target: hPP1β-GFP (pEGFP expression plasmid, stable cell lines) (human) (UniProt P62140)
[3] = target: GFP-tagged PP1β (HeLa/BAC cell line mPPP1CB-LAP) (mouse) (UniProt P62141)
[4] = target: GFP-tagged PP1ɣ (HeLa/BAC cell line hPPP1CC-LAP) (human) (UniProt P36873)
[5] = target: GFP-hPP1γ (pEGFP expression plasmid, stable cell lines) (human) (UniProt P36873)

binding [2]	binding [5]	Substance	further results
binds		LENG3 (from UniProt Q9BZL4 1-782)	
binds		MKI67 (from UniProt P46013 1-3256)	
binds	no binding	MYPT3 (from UniProt Q96I34 1-528)	
binds	binds	NIPP1 (from UniProt Q12972 1-351)	
	binds	Spinophilin (from UniProt Q96SB3 1-817)	

Further lines, the substance ahead of its results:

Substance	binding [2]	binding [5]	further results
APPBP2 (amyloid beta precursor protein binding protein 2) (from UniProt Q92624 1-585)			binding [1]: binds
LMTK2 (from UniProt Q8IWU2 1-1503)			binding [3]: no binding; binding [4]: binds
RASSF9 (endogenous) (from UniProt O75901 1-435)	no binding	no binding	
RIF1 (from UniProt Q5UIP0 1-2472)		binds	
TPRN (Taperin) (from UniProt Q4KMQ1 1-711)	no binding		
UBR2 (Recognin) (from UniProt Q8IWV8 1-1755)			binding [1]: binds

Results are given in words; binding and its absence hold for the method and conditions named. In cells and extracts the contact can be indirect. A yes stands for co-enrichment or nearness to the bait. Other partners may have been found. For part of these data: No binding means not detected with the bait.
